In publication PMC4105859, “Characterization of the SAM domain of the PKD-related protein ANKS6 and its interaction with ANKS3” (BMC Structural Biology, 2014):
These are yes or no findings as the source states them, for the method shown. Some entries that bind do so weakly or less than the wild type. Where a sequence is shown, tags or fusion partners need not be part of it.

Experiments:
[1] = biological target: negGFP-ANKS3-SAM fusion protein (human) (UniProt Q6ZW76); assay: native gel or EMSA; negGFP native gel assay of one negGFP-SAM fusion alone (lysate); self-association read from diffuse, slower migration against monomeric SAM domains
[2] = biological target: T1, negGFP-ANKS6-SAM R823W (human) (UniProt Q68DC2); assay: native gel or EMSA; negGFP native gel binding assay: lysates of two negGFP-SAM fusions mixed (1:1, or varying ratios by fluorescence), 20 mM Tris pH 7.5, 0.3 M NaCl, TCEP, equilibrated 3-4 h at 4°C, 20% native gel, read by fluorescence; a new upshifted band means binding
T1 sequence: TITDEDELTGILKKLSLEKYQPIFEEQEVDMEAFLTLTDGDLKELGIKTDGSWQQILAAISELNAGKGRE

[3] = biological target: T2, negGFP-ANKS6-SAM fusion protein (human) (UniProt Q68DC2); assay: as above
T2 sequence: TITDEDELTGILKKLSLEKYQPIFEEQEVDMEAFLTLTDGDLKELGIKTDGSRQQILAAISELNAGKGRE

[4] = biological target: T2, negGFP-ANKS6-SAM fusion protein (human); assay: native gel or EMSA; negGFP native gel assay of one negGFP-SAM fusion alone (lysate); self-association read from diffuse, slower migration against monomeric SAM domains

B1: negGFP-ANKS3-SAM fusion protein (domain or fragment, human, UniProt Q6ZW76 421-490, looked up)
chain: RAPYSGPQDLAALLEQIGCLKYLQVFEEQDVDLRIFLTLTESDLKEIGITLFGPKRKMTSAIARWHSSAR
notes: ANKS3 (ankyrin repeat and SAM-domain containing protein 3), human, SAM domain, residues 421-490 of UniProt Q6ZW76; source: ARI814 cells, in lysate (native gel); purified (Ni-NTA, HiTrap Q) for TEM
binding [1]: binds weakly | binding [2]: no binding | binding [3]: binds

B2: negGFP-ANKS6-SAM fusion protein (domain or fragment, UniProt Q68DC2 771-840)
chain: TITDEDELTGILKKLSLEKYQPIFEEQEVDMEAFLTLTDGDLKELGIKTDGSRQQILAAISELNAGKGRE
binding [4]: no binding
